{"source": "patent US20100041672A1", "about": "“USE OF QUINOLINE DERIVATIVES IN THE TREATMENT OF PAIN AND IRRITABLE BOWEL SYNDROME” (GLAXO GROUP LIMITED, priority 2007, published 2010)", "key": {"rats": {"system": "rats", "test": "FCA induced hypersensitivity rat model (intraplantar FCA, weight bearing)", "format": "in vivo", "conditions": "p.o., 1 hour post dose", "method": "Naïve weight bearing readings were taken. The hypersensitivity to pain was measured using the Rat incapacitance tester (Linton instruments). All rats (180-220 g) received an intraplantar injection of 100 ul of FCA (Freund's complete adjuvant) into the left hind paw. The FCA was sonicated for 15 minutes prior to use. 24 hrs after administration of the FCA, pre-dose weight bearing readings were taken. All animals were then ranked and randomised for dosing according to their FCA window (predose difference in grams—naïve difference in grams). Rats with FCA window less than 30 were excluded from the study.\nAnimals were then dosed orally with either vehicle, SB42457 (0.01, 0.1, 1 and 10 mg/kg p.o.) or celecoxib (10 mg/kg p.o.) as appropriate according to ranking and randomisation. Animals were assessed in the weight bearing apparatus 1 hour post dose.\nThe study was blind and randomised by FCA window using the Latin square method. % reversals were calculated by using the naïve, pre-dose and post dose values as follows: % Reversal=[(Pre-dose−Post-dose)/(Pre-dose−Naïve)]×100.\nGraphs were plotted using Prism3. […]\nNaïve weight bearing readings were taken. The hypersensitivity to pain was measured using the Rat incapacitance tester (Linton instruments). […] 24 hrs after administration of the FCA, pre-dose weight bearing readings were taken. […]"}, "Random Hooded rats": {"system": "Random Hooded rats", "test": "rat joint pain model of chronic inflammatory pain (intra-articular FCA, hind paw weight bearing)", "format": "in vivo", "conditions": "once daily oral dosing days 13-17 post intra-articular FCA", "method": "Random Hooded rats, 150-180 g, obtained from Charles River UK, were anaesthetised under gaseous anaesthetic and the area surrounding the left and right knee joint shaved and cleaned as for aseptic surgery. Animals were injected with 150 μl of FCA into the left knee joint (intra-articular injection). Animals were immediately allowed to recover from anaesthetic in a warmed/oxygenated environment until being returned to their home cage on paper bedding. No further post-op care was provided.\n(§1) Rats were tested prior to surgery and from 18 h post FCA (minimum of once weekly) for weight bearing (g) and joint diameter (mm). Weight bearing is measured by the animal's ability to place body weight across both hind paws on a Dual Channel Weight Averager which was calibrated each day prior to use using a 10 g weight (Rat capacitance tester—Linton Instruments). Hind paw weight bearing data was calculated and expressed as the percentage of the contralateral paw.\nAll data were expressed as mean±s.e.m. […]\nas §1, with “100” for “10”, “Hind paw weight bearing data was calculated and expressed as the percentage of the contralateral paw.” left out"}}, "note": "At least one compound was matched to its structure with a doubt left.", "data": [{"smiles": "Cc1ccc(-c2cc(C(F)(F)F)nn2-c2ccc(S(N)(=O)=O)cc2)cc1", "note": "[celecoxib, reference compound]", "values": [{"measurement": "effect on FCA induced hypersensitivity", "setting": "rats", "value": "reversed hypersensitivity"}, {"measurement": "effect on hypersensitivity in the joint pain model of chronic inflammatory pain", "setting": "Random Hooded rats", "value": "reversed the hypersensitivity"}]}]}
